Assay results as given in PubChem BioAssay AID1347426 (Functional Genomics Laboratory (NCATS/FGL), 2020).
Hit rate of the full screen: of about 31,000 sequences, about 1,400 (4.5%) were called active.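 The calls were made as follows: active = median seed-adjusted z-score above 1 or below -1; inactive = the rest.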 This is one part of the list.

test: Novel Modifiers of Survival Motor Neuron (SMN) Protein: Gene Identification via Genome-wide siRNA Screen; settings: HEK293T SMN2-luciferase reporter, siRNA knockdown, 72 h; actives lie on both sides;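 also: luminescence tracks full-length SMN protein made from the SMN2 reporter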
Outline: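 HEK293T cells stably carrying an SMN2 promoter/splicing cassette–luciferase reporter were reverse-transfected with 1 pmol siRNA per well (druggable-genome library, 3 siRNAs per gene) and grown 72 h at 37 °C. Luminescence, normalized to negative-control siRNA and log10-transformed, was scored as MAD.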

Sequence | median seed-adjusted z-score
CCCUCCAACUUAGCCCUGATT against RAB33A | inactive: 0.307
GAGAAGAUGCUGAACAUCATT against UBTF | inactive: 0.942
GCAGAAUAACUGGAUCUAATT against RPA2 | inactive: -0.0957
GGGUGAUUCUUUCAAUACUTT against SEC23A | inactive: 0.131
AGCACGAAGGCAAACCCUATT against CRIP1 | inactive: -0.622
GGAUGUAUGCAACCCAGAATT against SLC18A1 | inactive: 0.0986
GCAUGAACCUGACGGUGAATT against ZIC4 | inactive: 0.512
CCAUAGGUGGUUUACCAAATT against IL1RL2 | inactive: -0.555
GAACCAAAUUGUACGAGAATT against IRX3 | inactive: -0.285
AGCGGUUCUUGGUCCUGUATT against APBA3 | inactive: -0.119
CCUCAAGGAUGGAAUCCGATT against ZNF367 | inactive: -0.377
GCCUCUACAAGUUCAUGAATT against ARID5A | inactive: 0.0642
GCCGAUGAGUUGCUGAAUATT against AP2A1 | inactive: 0.559
CCAACAUUCUGAGUGCCCATT against SERPINE1 | inactive: 0.18
CAGAAAAACUUGCUACUGATT against ZNF232 | inactive: 0.39
AUACAGACCUCAGAUCUUATT against NHLH1 | inactive: -0.0084
CGUACACCAUGAUCGGGAATT against KIF26A | inactive: -0.428
CGUCGAGUAUUUCCAACUATT against BAI3 | inactive: 0.0657
CUAGAGUAUUUUGAUCUAATT against FAT2 | inactive: -0.286
GGAUCAACGUGGUCCGGAATT against AQP6 | inactive: 0.008
CCUCAAAAUCGACACCAUUTT against EPHA8 | inactive: 0.217
ACGAGAUCCUGACACCCAATT against MYH14 | inactive: -0.307
GCACGGUGCAGAACAACAATT against NR5A1 | inactive: -0.467

Sequence | median seed-adjusted z-score
GGAACUAUAUUUGGGCUUUTT against NEUROD4 | inactive: 0.0349
CAAGCGCAUUUAUUAUCUUTT against PYGB | inactive: -0.292
GCAAUGAGAUGAACACCGATT against NPEPL1 | active: 1.12
GCUCAUACGUUACUCAGCATT against ZNF519 | inactive: 0.0162
GAAUUGAUAGCUAAAGGCATT against TRIM36 | inactive: -0.262
CGAUGACUCAGAAAAGCGATT against ARHGEF10 | inactive: 0.22
GGCUAAGUAAAAAUGAGUATT against PCDHA11 | inactive: 0.582
CCAUGAUUAGAUUUCGGUATT against SENP5 | inactive: 0.215
GGAUCGAUUCUGAAUAUGATT against PAPSS1 | inactive: -0.648
GCGUGACGAUCAUGGACUATT against APOBEC3B | inactive: 0
GCACAAGACUGAAUAACGATT against FAM3B | inactive: -0.327
CUGUAGAUACUGUAUCAAATT against DVL1 | inactive: -0.814
CAAGCAUGCAUGUAGGGAATT against TLK2 | inactive: 0.347
GGAACGAUGUCACUCAGCATT against PLK4 | inactive: -0.0888
GGACUAAUGAUGGAGACUATT against SCARB2 | inactive: -0.244
UUCUCAUCCUGAUCUGUUUTT against CD1E | inactive: -0.133
CAAUUGUCUUACUCAUCAATT against NCOA4 | inactive: -0.0638
CAUCUUCAGUCUGUACAAATT against KIR2DL5B | active: 1.72
CCUGAGUGAUACUAAAGAATT against GALR1 | inactive: -0.721
GCACUGCUUUGAAUGCUAUTT against TTLL1 | inactive: 0.322
GUAUGUCAAGGAGAACGGATT against CTSL2 | active: -1.04
CCUACAGCAGUGUCUAUGATT against EIF3C | inactive: 0.56
CCACGACCAGCUUAAAGAATT against OAZ3 | inactive: 0.046

Sequence | median seed-adjusted z-score
CGUCAGCUAUGUAAUGUUUTT against SLC22A7 | inactive: -0.387
CGACGAACAUUUGAAGAUATT against GSS | inactive: 0.122
GCGGAUUCCUCUGUCCCAATT against SPINT2 | inactive: 0.00974
CACCAGGUCUGGAUAUUGATT against SF3A1 | active: -1.09
GAACUACGGGAAGUAUGAATT against TTL | inactive: -0.174
CAGUGACUGUCGGUACAUATT against TYRO3 | inactive: -0.0161
AGACCUUUGUGGAUGCAGATT against CTSE | inactive: -0.1
GACACUUUACCAAAUCCUATT against OSR2 | inactive: 0.603
CAUCCACAACGGCGAGAAGTT against GLI4 | inactive: 0.0798
CCGACUACUCCAACGAGAATT against MASP2 | inactive: -0.137
CCCAUUAACCUCCUCCCAATT against SPI1 | inactive: 0.384
ACAUAGACUUUGUACUACATT against ABHD1 | inactive: 0.336
GCUUGAAAGGGACGAGUUATT against SLC4A1AP | inactive: -0.0117
GCUACACCUCAGUUCAUCATT against CLOCK | inactive: -0.338
CGACAAGAAUACAACGAUATT against KEL | inactive: 0
UCAAGAAAAUGAACCGAGATT against HOXC10 | inactive: 0.000966
CAGCGAUUUUAAAUCGUAUTT against HSD17B13 | inactive: -0.329
GGCUCAACUUUAACACCGATT against RBM3 | inactive: 0.0539
GCCUCACCUUUGUAGUAUUTT against ZBTB41 | inactive: 0.173
GGAUCGUGGUCUUUCCAAATT against FNTA | active: 1.04
GCUAAUGGAUCAGAACGUATT against NEIL3 | inactive: 0.0736
GAUGAACUGAAGCUAUUGATT against S100G | inactive: -0.809

Copied from above (4 entries):
Sequence | median seed-adjusted z-score
GCACUGCUUUGAAUGCUAUTT against TTLL1 | inactive: 0.322
GUAUGUCAAGGAGAACGGATT against CTSL2 | active: -1.04
CCUACAGCAGUGUCUAUGATT against EIF3C | inactive: 0.56
CCACGACCAGCUUAAAGAATT against OAZ3 | inactive: 0.046
